# Measured values as given in PubChem BioAssay AID504834 (National Center for Advancing Translational Sciences (NCATS), 2011).
# In all, about 320,000 compounds went through this assay and about 22,000 (6.9%) were called active. Inconclusive results, whose numbers are uncertain, are shown with a selection of clear calls. Calls follow the shape of the dose curve; as a rule, active = well fitted inhibition curve with a large enough effect; inconclusive = small, poorly fitted or top-dose-only effect, or another doubt; inactive = no such curve, though single readings can be large or run the other way. Potencies beside an inconclusive call are fits to weak or partial responses and may not hold up.
# Assay: Primary qHTS for delayed death inhibitors of the malarial parasite plastid, 96 hour incubation
# Conditions: P. falciparum luciferase reporter growth; series mostly up to 28.7 µM; activity change, negative = inhibition: at the top concentration
# Procedure, shortened: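 Delayed-death screen, second-generation endpoint: infected erythrocytes, 2% hematocrit, 0.05% parasitemia final; 96 hours at 37 C, 5% CO2; luciferase detection reagent; luminescence decrease equals reduced growth.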
# % is scaled to controls: 0 for no effect and ±100 for the full control effect; potency is read from the fitted curve at half-maximal effect.
Structure (SMILES),"activity change, negative = inhibition",Potency
COc1ccccc1-c1ocnc1C(=O)Nc1ccc(N2CCOCC2)cc1N1CCOCC1,inactive: 1.85%,
CCN1CCN(c2ccc(NC(=O)c3ccc(OC)c(S(=O)(=O)N4CCCC4)c3)cc2)CC1,,"inconclusive: 18.5 µM [inhibitor, single point]"
Cn1c(CSc2nc3ccccc3s2)n[nH]c1=S,inactive: -3.4%,
O=C(Nc1nnc(C2CCCCC2)s1)C1CC(=O)N(c2ccccc2)C1 (stereo not drawn),inactive: -0.805%,
C=CCC1(C)C(=O)N(c2ccccc2)c2ccccc21 (stereo not drawn),,"inconclusive: 2.33 µM [inhibitor, partial curve, poor fit]"
Cc1cccc(C)c1NC(=O)CN(C)C(=O)CC1CC2CCC1C2 (stereo not drawn),inactive: -9.95%,
O=S(=O)(N/N=C/c1ccc2c(c1)OCCO2)c1ccccc1,inactive: 44.9%,
Cn1c(SCC(=O)NCCc2ccccc2)ncc(C(=O)Nc2ccc(F)cc2)c1=O,inactive: 2.69%,
Cc1cc(C)c2nc(N3CCC(C(=O)N4CCN(C(=O)c5ccco5)CC4)CC3)sc2c1,,"inconclusive: 10.4 µM [inhibitor, partial curve, poor fit]"
C=CCNCC(=O)N1N=C(c2ccc3ccccc3c2)CC1c1ccc(OC)cc1 (stereo not drawn),,"inconclusive: 10.4 µM [inhibitor, partial curve, poor fit]"
CCN(CC)S(=O)(=O)c1ccc(Cl)c(C(=O)Nc2nnc(C)s2)c1,inactive: 0.0705%,
O=C(O)C1C2CCC(O2)C1C(=O)Nc1ccc(F)c(F)c1 (stereo not drawn),,"inconclusive: 2.94 µM [inhibitor, partial curve]"
COc1cccc(/C=c2\sc3nc(-c4cccs4)nn3c2=O)c1OC,,"inconclusive: 1.31 µM [inhibitor, partial curve, poor fit]"
CCCn1c(SCC(=O)Nc2ccc(NC(C)=O)cc2)nc2c1c(=O)n(C)c(=O)n2C,inactive: 1.69%,
CCn1c(SCC(=O)N2CCC(C(N)=O)(N3CCCCC3)CC2)nnc1-c1ccccc1,inactive: -16.5%,
O=C(NCc1ccco1)c1cc(-c2cccs2)nc2ccccc12,,active: 18.5 µM
Cc1ccc(S(=O)(=O)c2nc(N3CCOCC3)sc2Cl)cc1,,"inconclusive: 18.5 µM [inhibitor, single point]"
Cc1cnnc2c1-c1no[n+]([O-])c1CC2,,"inconclusive: 1.85 µM [inhibitor, single point]"
CC(=O)Nc1ccc(/C=N/NC(=O)c2cc(-c3ccco3)nc3ccccc23)cc1,inactive: 43.1%,
Cc1ccccc1/[N+]([O-])=C/c1cccs1,inactive: 28.8%,
CN(CC(=O)Nc1ccccc1C(=O)NC1CC1)Cc1ccc(Cl)cc1,,"inconclusive: 9.28 µM [inhibitor, partial curve, poor fit]"
C=CCNC(=S)Nc1ccc(N(C)C)cc1,,"inconclusive: 18.5 µM [inhibitor, partial curve, poor fit]"
Cc1cc(F)ccc1N1CCC(N2CCN(C(C)C)C(CCO)C2)CC1 (stereo not drawn),,active: 10.4 µM
COc1cc2c(cc1OC)-c1cc(OCc3cccnc3)nc(=O)n1CC2,,"inconclusive: 18.5 µM [inhibitor, single point]"
COc1ccc(OC)c(C(=O)NC(CC(N)=O)c2ccc(N3CCCCCC3)c([N+](=O)[O-])c2)c1 (stereo not drawn),,"inconclusive: 7.38 µM [inhibitor, partial curve]"

Structure (SMILES),"activity change, negative = inhibition",Potency
Cc1ccc(N2C(=O)NC(NS(=O)(=O)c3ccccc3)(C(F)(F)F)C2=O)cc1C (stereo not drawn),,"inconclusive: 10.4 µM [inhibitor, single point]"
COc1ccc(S(=O)(=O)NCc2ccccn2)c(C)c1C,inactive: 6.67%,
Cc1ccc(S(=O)(=O)N2CCN(C)CC2)cc1-c1nnc2c3ccccc3c(C)nn12,,"inconclusive: 8.28 µM [inhibitor, partial curve]"
Cc1cc(C)nc(SC(C)C(=O)O)n1 (stereo not drawn),inactive: -5.33%,
CC1CCCN(C(=O)COC(=O)c2cc(-c3cccs3)nn2-c2ccccc2)C1 (stereo not drawn),inactive: 43.2%,
COCCN(C(=O)COC(=O)c1oc2ccc(OC)cc2c1C)c1c(N)n(Cc2ccccc2)c(=O)[nH]c1=O,,"inconclusive: 18.5 µM [inhibitor, single point]"
CCOC(=O)N/N=C/c1ccc(OCCSc2ccc(Cl)cc2)c(OCC)c1,,active: 3.29 µM
O=C(NNc1ncc(C(F)(F)F)cc1Cl)c1c(Cl)cccc1Cl,,"inconclusive: 11.7 µM [inhibitor, single point]"
Cc1ccc(SCC(=O)Nc2ccc(N3CCOCC3)cc2)cc1C,,"inconclusive: 2.94 µM [inhibitor, partial curve, poor fit]"
CN(c1ccccc1)S(=O)(=O)c1cccc(C(=O)Nc2cccc(C(=O)NC3CC3)c2)c1,,active: 6.57 µM
O=CN1CCN(S(=O)(=O)c2ccc(S(=O)(=O)NC3CCCCC3)cc2)CC1,inactive: -7.01%,
CCC(=O)NC(NC(=S)Nc1cccc2cccnc12)C(Cl)(Cl)Cl (stereo not drawn),inactive: 19.8%,
CCN1C(=O)c2ccccc2Sc2ccc(C(=O)NC(C)C)cc21,inactive: 29.6%,
Cc1ccc(C(=O)NC(=S)Nc2cccc3c(C)cc(C)nc23)cc1,,active: 11.7 µM
CCCN1C(=O)N(c2cccc(C)c2)C(C)(O)CC1(C)C (stereo not drawn),,"inconclusive: 7.38 µM [inhibitor, partial curve, poor fit]"
O=C(CNc1n[nH]c(=O)[nH]c1=O)N/N=C/C=C/c1ccccc1,inactive: -18.8%,
COc1ccc(C2/C=C\CN(C(=O)c3ccc(C)cc3)[C@H](Cc3ccccc3)C(=O)N2Cc2ccc(F)cc2)cc1 (stereo partly drawn),,active: 4.15 µM
COc1ccccc1C(=O)NCc1nnc(SCC(=O)Nc2nccs2)n1C,,"inconclusive: 13.1 µM [inhibitor, single point]"
COc1ccc(C(=O)COC(=O)CCNS(=O)(=O)c2ccccc2)c(OC)c1,inactive: 26.6%,
CC(=O)Nc1nc(C)cs1,inactive: 8.17%,
CC[N+]1=CN(c2ccccc2)C(C)=CC1(C)C,,active: 4.15 µM
CCc1ccccc1Nc1nc(N)nc(COC(=O)C2CCN(C(=O)c3ccc(F)cc3)CC2)n1,,"inconclusive: 8.28 µM [inhibitor, partial curve]"
C=CCSc1nc(=O)n2ccc(C)cc2n1,,"inconclusive: 20.8 µM [inhibitor, partial curve, poor fit]"
Cc1cc(-c2nnc(CCC(=O)N(C)CCc3ccccc3)o2)no1,inactive: 8.6%,
CCOc1ccc(NC(=O)C2(c3ccc(OC)c(OC)c3)CCCC2)cc1,,active: 1.65 µM

# Quoted from the listing.
# Potency, `Cc1cc(F)ccc1N1CCC(N2CCN(C(C)C)C(CCO)C2)CC1` (stereo not drawn) is entered as active: 10.4 µM
# activity change, negative = inhibition, `CCC(=O)NC(NC(=S)Nc1cccc2cccnc12)C(Cl)(Cl)Cl` (stereo not drawn) is entered as inactive: 19.8%
# Potency, `COc1ccc(C2/C=C\CN(C(=O)c3ccc(C)cc3)[C@H](Cc3ccccc3)C(=O)N2Cc2ccc(F)cc2)cc1` (stereo partly drawn) is entered as active: 4.15 µM

# Continuation:

Structure (SMILES),"activity change, negative = inhibition",Potency
Cc1ccc(-c2nc3ncccn3c2Nc2ccc3c(c2)OCCO3)o1,,"inconclusive: 7.38 µM [inhibitor, partial curve, poor fit]"
O=C(Nc1ccccc1)Nc1ccc2snnc2c1,,active: 3.29 µM
CCC1CCCCN1CCCNC(=O)CN1C(=O)c2cccnc2Oc2ccc(C)cc21 (stereo not drawn),,"inconclusive: 18.5 µM [inhibitor, single point]"
Cc1cc(NC(=O)c2cc(-c3ccccn3)nc3ccc(Br)cc23)no1,inactive: 15.5%,
CC(C)c1ccc(NC2CCCN(C(=O)c3ccc4nccnc4c3)C2)cc1 (stereo not drawn),,"inconclusive: 18.5 µM [inhibitor, single point]"
Cc1ccc(C)c(OCC(=O)Nc2cc(C)on2)c1,,"inconclusive: 10.4 µM [inhibitor, partial curve, poor fit]"
COc1cccc(CN2CCNC(=O)C2CC(=O)N(C)Cc2nc(C)cs2)c1OC (stereo not drawn),inactive: 14.5%,
COc1ccc(Nc2nnc(-c3ccccc3)c3ccccc23)cc1C(=O)N1CCCCC1,,active: 1.17 µM
CCS(=O)(=O)c1ncc(Cl)c(C(=O)Nc2ccc(S(=O)(=O)N3CCC(C)CC3)cc2)n1,inactive: 64%,
CCN(CC)S(=O)(=O)c1cc([N+](=O)[O-])ccc1NNC(=O)Nc1ccccc1OC,,"inconclusive: 18.5 µM [inhibitor, partial curve, poor fit]"
CCCN(CC(=O)Nc1ccccc1C)C(=O)CCCNC(=O)c1ccc(Cl)cc1,inactive: 77%,
COC(=O)c1cc(NC(=O)CCc2c(C)nc3ncnn3c2C)cc(C(=O)OC)c1,,"inconclusive: 0.0023 µM [inhibitor, full curve, poor fit]"
COC(=O)c1ccc(NC(=O)C(=O)N2CCN(C(=S)Nc3ccc(C)cc3)CC2)cc1,,active: 0.37 µM
Cc1ccc2[nH]c(C)cc(=S)c2c1,,"inconclusive: 9.28 µM [inhibitor, partial curve]"
CCc1ccc(C2(C)SC(NC(C)=O)=NN2C(C)=O)cc1 (stereo not drawn),,"inconclusive: 4.15 µM [inhibitor, partial curve, poor fit]"
Cc1cccc(NS(=O)(=O)c2cccc(C(=O)NNC(=O)c3ccccc3O)c2)c1,,"inconclusive: 0.37 µM [inhibitor, full curve, poor fit]"
N#CCC(=O)Nc1ccc(C(=O)N2CCN(c3ccccn3)CC2)cc1,,"inconclusive: 16.5 µM [inhibitor, single point]"
COc1ccc(OC)c(N(CC(=O)N2CCC(C)CC2)S(=O)(=O)c2ccccc2)c1,,"inconclusive: 2.33 µM [inhibitor, full curve]"
CC1CCCC(C)N1C(=O)COc1ccc(C(=O)Nc2ccccc2N2CCOCC2)cc1 (stereo not drawn),,"inconclusive: 4.15 µM [inhibitor, single point]"
CCN(c1ccccc1)S(=O)(=O)c1ccc(NC(=S)NC(=O)c2cccs2)cc1,,"inconclusive: 0.0026 µM [inhibitor, full curve, poor fit]"
O=C(COC(=O)c1ccc2c(c1)S(=O)(=O)N=C1CCCCCN12)NCCc1ccc(F)cc1,inactive: 9.31%,
COc1cccc(C2NC(=O)NC(C)=C2C(=O)OCC2CCCCC2)c1 (stereo not drawn),,"inconclusive: 10.4 µM [inhibitor, single point]"
Cc1cccc(CN2CCC(Oc3ccc(C(=O)N4CCCCC4)cc3)CC2)c1,,active: 9.28 µM
